Assay results taken from PMC7311471, “The iron–sulphur cluster in human DNA2 is required for all biochemical activities of DNA2”.
Positions count from the first letter of the chain named. For at least one entry, the source does not settle the construct or the ends of the probe. Weaker means in comparison with the reference protein, sequence or condition of that experiment. For part of these data: At least one verdict was read from the data and is not stated in words by the source. Where a protein sequence is shown, tags need not be part of it.

Columns and labels:
DNA2 C136S (human) = target: T1, DNA2 C136S (human) (UniProt P51530); assay: EMSA; conditions: 20 and 100 nM protein; EMSA: 25 mM Tris-HCl pH 8.0, 0.1 mg/ml BSA, 5 mM EDTA, with or without 1 mM DTT, 30 min on ice; 4-5 nM FAM-DNA or 1 nM 32P-DNA; recombinant protein; residues 1-1060; protein details: His6 and FLAG; label: FAM (strand and end not shown)
T1 sequence (looked up): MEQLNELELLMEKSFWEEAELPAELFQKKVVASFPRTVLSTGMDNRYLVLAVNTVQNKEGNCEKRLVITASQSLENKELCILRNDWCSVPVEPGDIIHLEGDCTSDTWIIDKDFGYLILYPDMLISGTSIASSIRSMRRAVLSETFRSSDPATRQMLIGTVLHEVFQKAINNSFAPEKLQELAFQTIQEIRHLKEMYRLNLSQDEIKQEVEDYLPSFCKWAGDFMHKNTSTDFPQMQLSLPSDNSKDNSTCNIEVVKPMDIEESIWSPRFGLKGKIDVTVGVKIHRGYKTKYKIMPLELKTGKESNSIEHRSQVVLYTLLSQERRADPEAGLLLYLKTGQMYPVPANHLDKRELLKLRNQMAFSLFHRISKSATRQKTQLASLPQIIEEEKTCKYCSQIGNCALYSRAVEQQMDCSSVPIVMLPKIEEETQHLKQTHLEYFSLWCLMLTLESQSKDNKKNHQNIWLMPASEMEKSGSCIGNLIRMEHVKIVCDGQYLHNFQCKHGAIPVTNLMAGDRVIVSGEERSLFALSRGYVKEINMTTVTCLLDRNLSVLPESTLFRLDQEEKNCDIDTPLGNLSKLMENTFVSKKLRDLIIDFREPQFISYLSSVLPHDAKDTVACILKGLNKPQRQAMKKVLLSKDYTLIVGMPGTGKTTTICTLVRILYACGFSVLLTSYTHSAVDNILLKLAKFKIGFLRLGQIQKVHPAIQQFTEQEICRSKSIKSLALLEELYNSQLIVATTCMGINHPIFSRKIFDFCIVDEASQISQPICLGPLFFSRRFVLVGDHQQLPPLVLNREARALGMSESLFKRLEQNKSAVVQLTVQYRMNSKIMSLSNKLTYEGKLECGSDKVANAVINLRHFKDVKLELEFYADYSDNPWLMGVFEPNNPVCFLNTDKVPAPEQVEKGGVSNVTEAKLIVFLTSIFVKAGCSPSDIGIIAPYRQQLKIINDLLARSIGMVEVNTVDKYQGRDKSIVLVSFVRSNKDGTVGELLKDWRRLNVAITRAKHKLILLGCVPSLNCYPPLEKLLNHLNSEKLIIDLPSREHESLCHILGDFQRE

DNA2 WT (human) = target: T2, DNA2 WT (human) (UniProt P51530); assay: EMSA; conditions: EMSA: 25 mM Tris-HCl pH 8.0, 0.1 mg/ml BSA, 5 mM EDTA, with or without 1 mM DTT, 30 min on ice, 4-5 nM FAM-DNA or 1 nM 32P-DNA, recombinant protein, residues 1-1060, protein details: His6 and FLAG, label: FAM (strand and end not shown)
T2 sequence (looked up): T1 sequence (looked up) with S136C

Measured: binding result

ATCGATAGTCGGATCCTCTAGACAGCTCCATGTAGCAAGGCACTGGTAGAATTCGGCAGCGT / GACGCTGCCGAATTCTACCAGTGCCTTGCTAGGACATCTTTGCCCACCTGCAGGTTCACCC / TGGGTGAACCTGCAGGTGGGCAAAGATGTCC [5' flap (FAM)]
binds more weakly: DNA2 C136S (human) | DNA2 WT (human); 50 nM protein pre-incubated with H2O2 | DNA2 WT (human); 20 h air exposure without reducing agent (severely impaired)
